Values from PubChem BioAssay AID1159591 (NIAID, 2016)
This is a random part of 756 reagents. 130 of all reagents (17%) count as active. 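Active calls include both lower and higher Tnf reporter signal.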 Entries without a mark were called inactive. Reagents against one gene are numbered here. No sequences are given here. The record does not give: the amount of reagent.

- Purpose: 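TLR7/8 agonist R848 and Tnf expression after gene knock-down in mouse macrophages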
- Cell system: mouse RAW264.7 G9 macrophage reporter clone (GFP-p65, Tnf promoter-mCherry)
- Reagents: single siRNA against mouse genes
- Timing: cells assayed 48 to 72 hours after siRNA transfection; R848 for 16 hours before fixing
- Treatment: R848 (TLR7/8 agonist) for 16 hours before fixation; dose not given
- Measurement: 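mCherry Tnf promoter reporter in nuclei imaged after 16 hours of R848, background removed, robust z relative to non-targeting controls using plate median and MAD, replicate average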
- Scale: mean Tnf reporter z-score: higher = stronger Tnf promoter reporter signal than controls
- Active means: 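Activity score from absolute z: steps above 1, 1.5, 2 and 2.5 give 25 to 100; active cut not stated, but active genes here sit near z -1.5 or below, or 1.5 or above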
- Meaning of the calls: active = reporter clearly up or down; inactive = little reporter change

| Target gene | siRNA no. | mean Tnf reporter z-score |
| --- | --- | --- |
| Crebbp (CREB binding protein) | 1 | 0.679 |
| Crebbp (CREB binding protein) | 2 | -2.35 (active) |
| Crebbp (CREB binding protein) | 3 | -1.76 (active) |
| Crebbp (CREB binding protein) | 4 | -0.186 |
| Crebbp (CREB binding protein) | 5 | -3.77 (active) |
| Crebbp (CREB binding protein) | 6 | -0.459 |
| Ikbke (inhibitor of kappaB kinase epsilon) | 1 | -0.982 |
| Ikbke (inhibitor of kappaB kinase epsilon) | 2 | -2.19 (active) |
| Ikbke (inhibitor of kappaB kinase epsilon) | 3 | -0.538 |
| Ikbke (inhibitor of kappaB kinase epsilon) | 4 | -1.08 |
| Ikbke (inhibitor of kappaB kinase epsilon) | 5 | -0.158 |
| Ikbke (inhibitor of kappaB kinase epsilon) | 6 | -1.81 (active) |
| Mapkapk2 (MAP kinase-activated protein kinase 2) | 1 | -2.77 (active) |
| Mapkapk2 (MAP kinase-activated protein kinase 2) | 2 | 0.511 |
| Mapkapk2 (MAP kinase-activated protein kinase 2) | 3 | -1.03 |
| Mapkapk2 (MAP kinase-activated protein kinase 2) | 4 | -0.0907 |
| Mapkapk2 (MAP kinase-activated protein kinase 2) | 5 | 1.39 |
| Mapkapk2 (MAP kinase-activated protein kinase 2) | 6 | 0.022 |
| Ticam2 (TIR domain containing adaptor molecule 2) | 1 | -0.788 |
| Ticam2 (TIR domain containing adaptor molecule 2) | 2 | -0.598 |
| Ticam2 (TIR domain containing adaptor molecule 2) | 3 | -2.85 (active) |
| Ticam2 (TIR domain containing adaptor molecule 2) | 4 | 0.00859 |
| Ticam2 (TIR domain containing adaptor molecule 2) | 5 | -0.927 |
| Ticam2 (TIR domain containing adaptor molecule 2) | 6 | -1.53 (active) |
| Casp8 (caspase 8) | 1 | 0.344 |
| Casp8 (caspase 8) | 2 | -1.14 |
| Casp8 (caspase 8) | 3 | -0.229 |
| Casp8 (caspase 8) | 4 | -0.543 |
| Casp8 (caspase 8) | 5 | -0.155 |
| Casp8 (caspase 8) | 6 | 0.502 |
| Cxcl11 (chemokine (C-X-C motif) ligand 11) | 1 | -0.609 |
| Cxcl11 (chemokine (C-X-C motif) ligand 11) | 2 | -0.697 |
| Cxcl11 (chemokine (C-X-C motif) ligand 11) | 3 | -0.212 |
| Cxcl11 (chemokine (C-X-C motif) ligand 11) | 4 | 0.273 |
| Cxcl11 (chemokine (C-X-C motif) ligand 11) | 5 | -1.55 (active) |
| Cxcl11 (chemokine (C-X-C motif) ligand 11) | 6 | -1.56 (active) |
| Tlr8 (toll-like receptor 8) | 1 | 0.944 |
| Tlr8 (toll-like receptor 8) | 2 | 0.327 |
| Tlr8 (toll-like receptor 8) | 3 | -0.651 |
| Tlr8 (toll-like receptor 8) | 4 | 0.0707 |
| Tlr8 (toll-like receptor 8) | 5 | -0.468 |
| Tlr8 (toll-like receptor 8) | 6 | -0.468 |
| Ripk1 (receptor (TNFRSF)-interacting serine-threonine kinase 1) | 1 | -0.791 |
| Ripk1 (receptor (TNFRSF)-interacting serine-threonine kinase 1) | 2 | -0.149 |
| Ripk1 (receptor (TNFRSF)-interacting serine-threonine kinase 1) | 3 | 0.219 |
| Ripk1 (receptor (TNFRSF)-interacting serine-threonine kinase 1) | 4 | 0.275 |
| Ripk1 (receptor (TNFRSF)-interacting serine-threonine kinase 1) | 5 | -0.588 |
| Ripk1 (receptor (TNFRSF)-interacting serine-threonine kinase 1) | 6 | 1.7 (active) |
| Dab2ip (disabled 2 interacting protein) | 1 | 0.385 |
| Dab2ip (disabled 2 interacting protein) | 2 | -0.0188 |
| Dab2ip (disabled 2 interacting protein) | 3 | 1.59 (active) |
| Dab2ip (disabled 2 interacting protein) | 4 | -2.7 (active) |
| Dab2ip (disabled 2 interacting protein) | 5 | -1.09 |
| Dab2ip (disabled 2 interacting protein) | 6 | -0.0215 |
| Map3k8 (mitogen-activated protein kinase kinase kinase 8) | 1 | -0.513 |
| Map3k8 (mitogen-activated protein kinase kinase kinase 8) | 2 | 0.174 |
| Map3k8 (mitogen-activated protein kinase kinase kinase 8) | 3 | -1.58 (active) |
| Map3k8 (mitogen-activated protein kinase kinase kinase 8) | 4 | 0.608 |
| Map3k8 (mitogen-activated protein kinase kinase kinase 8) | 5 | -0.326 |
| Map3k8 (mitogen-activated protein kinase kinase kinase 8) | 6 | -0.642 |

Continued; the last 17 above are carried over.
| Target gene | siRNA no. | mean Tnf reporter z-score |
| --- | --- | --- |
| Ripk1 (receptor (TNFRSF)-interacting serine-threonine kinase 1) | 2 | -0.149 |
| Ripk1 (receptor (TNFRSF)-interacting serine-threonine kinase 1) | 3 | 0.219 |
| Ripk1 (receptor (TNFRSF)-interacting serine-threonine kinase 1) | 4 | 0.275 |
| Ripk1 (receptor (TNFRSF)-interacting serine-threonine kinase 1) | 5 | -0.588 |
| Ripk1 (receptor (TNFRSF)-interacting serine-threonine kinase 1) | 6 | 1.7 (active) |
| Dab2ip (disabled 2 interacting protein) | 1 | 0.385 |
| Dab2ip (disabled 2 interacting protein) | 2 | -0.0188 |
| Dab2ip (disabled 2 interacting protein) | 3 | 1.59 (active) |
| Dab2ip (disabled 2 interacting protein) | 4 | -2.7 (active) |
| Dab2ip (disabled 2 interacting protein) | 5 | -1.09 |
| Dab2ip (disabled 2 interacting protein) | 6 | -0.0215 |
| Map3k8 (mitogen-activated protein kinase kinase kinase 8) | 1 | -0.513 |
| Map3k8 (mitogen-activated protein kinase kinase kinase 8) | 2 | 0.174 |
| Map3k8 (mitogen-activated protein kinase kinase kinase 8) | 3 | -1.58 (active) |
| Map3k8 (mitogen-activated protein kinase kinase kinase 8) | 4 | 0.608 |
| Map3k8 (mitogen-activated protein kinase kinase kinase 8) | 5 | -0.326 |
| Map3k8 (mitogen-activated protein kinase kinase kinase 8) | 6 | -0.642 |
| Tlr4 (toll-like receptor 4) | 1 | -0.353 |
| Tlr4 (toll-like receptor 4) | 2 | 0.556 |
| Tlr4 (toll-like receptor 4) | 3 | -1 |
| Tlr4 (toll-like receptor 4) | 4 | 1.38 |
| Tlr4 (toll-like receptor 4) | 5 | 0.626 |
| Tlr4 (toll-like receptor 4) | 6 | 1.08 |
| Egr1 (early growth response 1) | 1 | -1.4 |
| Egr1 (early growth response 1) | 2 | -0.871 |
| Egr1 (early growth response 1) | 3 | -1.7 (active) |
| Egr1 (early growth response 1) | 4 | 0.379 |
| Egr1 (early growth response 1) | 5 | -2.67 (active) |
| Egr1 (early growth response 1) | 6 | -0.174 |
| Mapk9 (mitogen-activated protein kinase 9) | 1 | 0.0548 |
| Mapk9 (mitogen-activated protein kinase 9) | 2 | -0.308 |
| Mapk9 (mitogen-activated protein kinase 9) | 3 | -1.71 (active) |
| Mapk9 (mitogen-activated protein kinase 9) | 4 | 0.762 |
| Mapk9 (mitogen-activated protein kinase 9) | 5 | -0.553 |
| Mapk9 (mitogen-activated protein kinase 9) | 6 | 0.43 |
| Tab2 (TGF-beta activated kinase 1/MAP3K7 binding protein 2) | 1 | 0.318 |
| Tab2 (TGF-beta activated kinase 1/MAP3K7 binding protein 2) | 2 | 0.0984 |
| Tab2 (TGF-beta activated kinase 1/MAP3K7 binding protein 2) | 3 | -0.961 |
| Tab2 (TGF-beta activated kinase 1/MAP3K7 binding protein 2) | 4 | -1.07 |
| Tab2 (TGF-beta activated kinase 1/MAP3K7 binding protein 2) | 5 | -0.811 |
| Tab2 (TGF-beta activated kinase 1/MAP3K7 binding protein 2) | 6 | -0.138 |
| Rac1 (Rac family small GTPase 1) | 1 | 0.126 |
| Rac1 (Rac family small GTPase 1) | 2 | 1.12 |
| Rac1 (Rac family small GTPase 1) | 3 | -0.786 |
| Rac1 (Rac family small GTPase 1) | 4 | 0.26 |
| Rac1 (Rac family small GTPase 1) | 5 | -3.15 (active) |
| Rac1 (Rac family small GTPase 1) | 6 | -0.0314 |
| Ep300 (E1A binding protein p300) | 1 | -1.47 |
| Ep300 (E1A binding protein p300) | 2 | -1.13 |
| Ep300 (E1A binding protein p300) | 3 | 0.00922 |
| Ep300 (E1A binding protein p300) | 4 | 0.0777 |
| Ep300 (E1A binding protein p300) | 5 | -2.03 (active) |
| Ep300 (E1A binding protein p300) | 6 | -1.67 (active) |
| Jun (Jun proto-oncogene, AP-1 transcription factor subunit) | 1 | 0.193 |
| Jun (Jun proto-oncogene, AP-1 transcription factor subunit) | 2 | -1.78 (active) |
| Jun (Jun proto-oncogene, AP-1 transcription factor subunit) | 3 | -0.139 |
| Jun (Jun proto-oncogene, AP-1 transcription factor subunit) | 4 | -1.27 |
| Jun (Jun proto-oncogene, AP-1 transcription factor subunit) | 5 | -0.821 |
| Jun (Jun proto-oncogene, AP-1 transcription factor subunit) | 6 | 0.155 |
| Irf3 (interferon regulatory factor 3) | 1 | 1.88 (active) |
| Irf3 (interferon regulatory factor 3) | 2 | 0.182 |
| Irf3 (interferon regulatory factor 3) | 3 | -2.7 (active) |
| Irf3 (interferon regulatory factor 3) | 4 | -1.71 (active) |
| Irf3 (interferon regulatory factor 3) | 5 | -0.393 |
| Irf3 (interferon regulatory factor 3) | 6 | 1.15 |
| Irak3 (interleukin-1 receptor-associated kinase 3) | 1 | -0.808 |
| Irak3 (interleukin-1 receptor-associated kinase 3) | 2 | -0.805 |
| Irak3 (interleukin-1 receptor-associated kinase 3) | 3 | 0.394 |
| Irak3 (interleukin-1 receptor-associated kinase 3) | 4 | 0.163 |
| Irak3 (interleukin-1 receptor-associated kinase 3) | 5 | 0.0156 |
| Irak3 (interleukin-1 receptor-associated kinase 3) | 6 | -0.427 |
| Map2k6 (mitogen-activated protein kinase kinase 6) | 1 | -0.267 |
| Map2k6 (mitogen-activated protein kinase kinase 6) | 2 | 0.231 |
| Map2k6 (mitogen-activated protein kinase kinase 6) | 3 | -0.663 |
| Map2k6 (mitogen-activated protein kinase kinase 6) | 4 | 0.876 |
| Map2k6 (mitogen-activated protein kinase kinase 6) | 5 | -0.689 |
| Map2k6 (mitogen-activated protein kinase kinase 6) | 6 | 0.849 |
| Sigirr | 1 | 0.534 |
| Sigirr | 2 | -1.4 |
| Sigirr | 3 | -0.08 |
| Sigirr | 4 | -1.38 |
| Sigirr | 5 | -0.843 |
| Sigirr | 6 | 0.892 |
| Pik3r2 (phosphoinositide-3-kinase regulatory subunit 2) | 1 | 0.211 |
| Pik3r2 (phosphoinositide-3-kinase regulatory subunit 2) | 2 | -0.227 |
| Pik3r2 (phosphoinositide-3-kinase regulatory subunit 2) | 3 | -1.55 (active) |
| Pik3r2 (phosphoinositide-3-kinase regulatory subunit 2) | 4 | 0.137 |
| Pik3r2 (phosphoinositide-3-kinase regulatory subunit 2) | 5 | 0.265 |
| Pik3r2 (phosphoinositide-3-kinase regulatory subunit 2) | 6 | -0.212 |
| Mapk1 (mitogen-activated protein kinase 1) | 1 | -1.19 |
| Mapk1 (mitogen-activated protein kinase 1) | 2 | -2.12 (active) |
| Mapk1 (mitogen-activated protein kinase 1) | 3 | -1.17 |
| Mapk1 (mitogen-activated protein kinase 1) | 4 | -0.804 |
| Mapk1 (mitogen-activated protein kinase 1) | 5 | 0.0882 |
| Mapk1 (mitogen-activated protein kinase 1) | 6 | -0.000574 |
| Mapk12 (mitogen-activated protein kinase 12) | 1 | 0.522 |
| Mapk12 (mitogen-activated protein kinase 12) | 2 | -0.842 |
| Mapk12 (mitogen-activated protein kinase 12) | 3 | -1.61 (active) |
| Mapk12 (mitogen-activated protein kinase 12) | 4 | 0.63 |
| Mapk12 (mitogen-activated protein kinase 12) | 5 | 0.171 |
| Mapk12 (mitogen-activated protein kinase 12) | 6 | -1.57 (active) |
